Literature values in publication PMC7856178 (Archives of biochemistry and biophysics, 2020).

Settings: humans; cited from earlier work

In the case of `CN1C(=O)CN=C(c2ccccc2)c2cc(Cl)ccc21` [diazepam], the “Rate of metabolism under the influence of chronic alcohol exposure” value is given as “increased rate of metabolism”.
